The list shows a part of the results.
Tests used:
Assay in all cases: log2 fold change, soluble protein after heating vs DMSO (PISA); higher = thermal stabilisation; K562 lysate, 10 uM; active = over 0.2 and 3.5 SD of the protein, either way, in both replicates (recomputed)
[1] = compound: CN1CC[C@H](c2c(O)cc(O)c3c(=O)cc(-c4ccccc4Cl)oc23)[C@H](O)C1 [alvocidib]
In short: (§1)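 Dounce homogenisation of K562 pellets in PBS pH 7.4 with 1 mM MgCl2 produced a crude extract, used at 1 mg/mL protein. Exposure to 10 μM compound lasted 30 min, and aliquots were then heated for 3 min across 48°C-58°C, pooled and brought to 0.5% NP-40 at 4°C. The supernatant after 21,000xg for 90 min was quantified by TMTpro 16plex LC-MS/MS with channel sums equalised. Duplicate values are given as log-two fold change in thermal stability relative to solvent controls.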

The chains behind the UniProt entries cited, without tags or fusion partners. Where a name states a change or a piece, a line headed by the entry shows the natural chain unless it says otherwise.
UniProt Q12792, whole entry, looked up: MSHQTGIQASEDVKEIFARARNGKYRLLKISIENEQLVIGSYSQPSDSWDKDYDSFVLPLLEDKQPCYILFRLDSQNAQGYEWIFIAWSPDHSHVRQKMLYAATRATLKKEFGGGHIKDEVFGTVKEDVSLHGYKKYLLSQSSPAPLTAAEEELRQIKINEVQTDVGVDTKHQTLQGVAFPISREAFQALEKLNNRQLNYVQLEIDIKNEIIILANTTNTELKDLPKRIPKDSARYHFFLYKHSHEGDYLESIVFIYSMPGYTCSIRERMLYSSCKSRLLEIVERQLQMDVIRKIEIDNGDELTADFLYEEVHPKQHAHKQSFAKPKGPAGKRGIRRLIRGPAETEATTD
UniProt Q05086: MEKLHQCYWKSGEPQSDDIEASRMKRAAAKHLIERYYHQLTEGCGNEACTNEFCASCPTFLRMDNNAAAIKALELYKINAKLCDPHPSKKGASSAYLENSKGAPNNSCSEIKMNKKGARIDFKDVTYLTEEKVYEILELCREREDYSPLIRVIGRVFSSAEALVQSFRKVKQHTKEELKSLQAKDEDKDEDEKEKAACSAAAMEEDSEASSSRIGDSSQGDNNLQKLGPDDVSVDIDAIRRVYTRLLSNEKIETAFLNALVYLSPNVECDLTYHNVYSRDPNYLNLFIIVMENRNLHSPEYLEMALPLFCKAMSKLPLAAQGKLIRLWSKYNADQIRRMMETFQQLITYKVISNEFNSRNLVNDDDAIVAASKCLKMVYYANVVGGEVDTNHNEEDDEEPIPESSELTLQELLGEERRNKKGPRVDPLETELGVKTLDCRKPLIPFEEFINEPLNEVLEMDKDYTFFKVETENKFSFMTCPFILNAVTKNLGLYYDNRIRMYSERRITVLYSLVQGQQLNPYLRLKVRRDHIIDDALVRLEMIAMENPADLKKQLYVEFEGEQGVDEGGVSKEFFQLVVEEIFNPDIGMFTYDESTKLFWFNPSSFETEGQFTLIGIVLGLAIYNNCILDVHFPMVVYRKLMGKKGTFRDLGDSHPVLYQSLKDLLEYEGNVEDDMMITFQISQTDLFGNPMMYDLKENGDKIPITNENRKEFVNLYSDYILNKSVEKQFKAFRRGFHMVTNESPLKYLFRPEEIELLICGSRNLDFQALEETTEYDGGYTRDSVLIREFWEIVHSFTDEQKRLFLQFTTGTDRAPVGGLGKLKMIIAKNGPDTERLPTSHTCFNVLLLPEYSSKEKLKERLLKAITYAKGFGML
UniProt Q9BSJ2, whole entry, looked up: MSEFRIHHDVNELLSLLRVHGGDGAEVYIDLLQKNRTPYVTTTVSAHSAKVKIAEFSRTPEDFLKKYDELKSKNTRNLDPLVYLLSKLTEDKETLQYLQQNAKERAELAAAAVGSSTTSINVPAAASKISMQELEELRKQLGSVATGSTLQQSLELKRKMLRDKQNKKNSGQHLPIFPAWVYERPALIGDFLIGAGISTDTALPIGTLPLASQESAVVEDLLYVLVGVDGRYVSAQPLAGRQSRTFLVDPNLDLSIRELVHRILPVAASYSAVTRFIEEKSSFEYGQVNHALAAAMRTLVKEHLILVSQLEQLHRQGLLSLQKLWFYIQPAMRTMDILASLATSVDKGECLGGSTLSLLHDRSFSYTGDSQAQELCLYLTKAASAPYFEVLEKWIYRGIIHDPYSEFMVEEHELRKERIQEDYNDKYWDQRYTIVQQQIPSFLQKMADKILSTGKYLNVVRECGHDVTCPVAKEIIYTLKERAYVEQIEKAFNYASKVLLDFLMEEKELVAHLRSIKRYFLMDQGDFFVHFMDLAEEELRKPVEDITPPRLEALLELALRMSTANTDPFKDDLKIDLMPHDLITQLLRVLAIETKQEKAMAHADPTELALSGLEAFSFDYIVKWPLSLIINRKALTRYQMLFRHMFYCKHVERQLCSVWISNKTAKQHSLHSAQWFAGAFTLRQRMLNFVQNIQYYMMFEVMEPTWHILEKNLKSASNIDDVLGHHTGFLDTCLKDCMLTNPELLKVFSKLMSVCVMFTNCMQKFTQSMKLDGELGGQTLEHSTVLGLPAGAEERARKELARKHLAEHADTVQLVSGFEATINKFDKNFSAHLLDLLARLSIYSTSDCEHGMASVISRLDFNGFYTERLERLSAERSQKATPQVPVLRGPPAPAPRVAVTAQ
UniProt Q14139: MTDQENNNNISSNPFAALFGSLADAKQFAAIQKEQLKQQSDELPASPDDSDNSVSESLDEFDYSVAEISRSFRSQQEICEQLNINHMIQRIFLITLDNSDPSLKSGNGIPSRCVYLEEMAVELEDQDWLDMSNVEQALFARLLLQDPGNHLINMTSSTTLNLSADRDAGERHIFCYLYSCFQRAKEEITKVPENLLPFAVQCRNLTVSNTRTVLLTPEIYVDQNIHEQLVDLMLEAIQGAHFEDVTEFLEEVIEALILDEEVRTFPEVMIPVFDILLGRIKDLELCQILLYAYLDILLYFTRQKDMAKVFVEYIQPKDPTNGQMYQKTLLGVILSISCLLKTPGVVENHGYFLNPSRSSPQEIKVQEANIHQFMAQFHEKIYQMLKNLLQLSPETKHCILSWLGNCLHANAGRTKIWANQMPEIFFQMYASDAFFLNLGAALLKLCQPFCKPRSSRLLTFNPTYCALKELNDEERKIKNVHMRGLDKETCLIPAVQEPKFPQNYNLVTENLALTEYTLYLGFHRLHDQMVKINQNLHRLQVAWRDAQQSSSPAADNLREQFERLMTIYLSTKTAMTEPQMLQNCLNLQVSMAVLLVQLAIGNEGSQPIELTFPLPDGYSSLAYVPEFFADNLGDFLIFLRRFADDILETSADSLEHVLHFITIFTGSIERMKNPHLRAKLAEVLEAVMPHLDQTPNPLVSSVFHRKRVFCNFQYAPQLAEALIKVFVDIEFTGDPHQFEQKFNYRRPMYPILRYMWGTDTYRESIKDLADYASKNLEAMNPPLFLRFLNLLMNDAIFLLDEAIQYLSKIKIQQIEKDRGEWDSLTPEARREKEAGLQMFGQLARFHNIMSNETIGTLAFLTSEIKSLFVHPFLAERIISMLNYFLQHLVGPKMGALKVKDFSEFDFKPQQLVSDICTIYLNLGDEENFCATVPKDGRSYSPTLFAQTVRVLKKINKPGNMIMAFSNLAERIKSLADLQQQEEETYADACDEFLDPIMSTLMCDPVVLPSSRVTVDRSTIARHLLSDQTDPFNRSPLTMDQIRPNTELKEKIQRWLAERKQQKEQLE
UniProt Q99757: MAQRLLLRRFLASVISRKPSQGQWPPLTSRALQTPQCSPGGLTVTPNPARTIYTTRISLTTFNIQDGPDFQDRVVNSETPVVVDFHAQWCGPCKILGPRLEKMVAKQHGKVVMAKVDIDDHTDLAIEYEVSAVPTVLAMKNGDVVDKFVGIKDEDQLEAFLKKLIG
UniProt Q15386: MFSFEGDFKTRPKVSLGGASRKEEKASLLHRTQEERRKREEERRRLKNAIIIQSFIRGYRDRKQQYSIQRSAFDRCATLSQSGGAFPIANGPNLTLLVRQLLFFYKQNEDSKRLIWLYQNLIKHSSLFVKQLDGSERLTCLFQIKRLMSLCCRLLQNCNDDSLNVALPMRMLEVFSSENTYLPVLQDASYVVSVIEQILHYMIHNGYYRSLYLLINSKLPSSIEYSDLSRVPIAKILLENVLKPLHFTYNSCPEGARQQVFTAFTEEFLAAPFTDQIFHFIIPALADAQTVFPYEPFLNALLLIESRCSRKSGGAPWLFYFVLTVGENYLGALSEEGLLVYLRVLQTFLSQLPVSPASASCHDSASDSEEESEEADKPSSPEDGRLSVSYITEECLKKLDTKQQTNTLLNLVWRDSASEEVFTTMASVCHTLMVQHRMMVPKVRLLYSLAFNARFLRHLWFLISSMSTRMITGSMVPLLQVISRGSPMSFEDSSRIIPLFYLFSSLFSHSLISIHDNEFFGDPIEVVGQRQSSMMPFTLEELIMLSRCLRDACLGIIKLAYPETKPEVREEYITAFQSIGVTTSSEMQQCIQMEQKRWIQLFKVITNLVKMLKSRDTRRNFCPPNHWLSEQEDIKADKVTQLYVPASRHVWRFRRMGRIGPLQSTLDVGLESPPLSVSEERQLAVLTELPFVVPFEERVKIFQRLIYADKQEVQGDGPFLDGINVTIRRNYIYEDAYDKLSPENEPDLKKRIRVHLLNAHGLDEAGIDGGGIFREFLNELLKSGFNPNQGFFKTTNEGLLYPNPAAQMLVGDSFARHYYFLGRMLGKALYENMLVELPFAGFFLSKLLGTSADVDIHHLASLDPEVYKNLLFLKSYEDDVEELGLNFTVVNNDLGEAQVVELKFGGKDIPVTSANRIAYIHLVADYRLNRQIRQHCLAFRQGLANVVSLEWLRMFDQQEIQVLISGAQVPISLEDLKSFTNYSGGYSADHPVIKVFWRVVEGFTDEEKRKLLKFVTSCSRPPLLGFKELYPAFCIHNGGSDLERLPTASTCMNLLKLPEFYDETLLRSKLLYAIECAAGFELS
UniProt P62256: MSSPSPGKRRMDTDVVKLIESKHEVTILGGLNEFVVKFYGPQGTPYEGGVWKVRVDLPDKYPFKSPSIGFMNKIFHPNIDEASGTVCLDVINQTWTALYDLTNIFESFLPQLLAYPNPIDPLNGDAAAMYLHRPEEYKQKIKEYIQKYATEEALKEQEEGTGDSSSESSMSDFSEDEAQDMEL
UniProt Q5VYS8: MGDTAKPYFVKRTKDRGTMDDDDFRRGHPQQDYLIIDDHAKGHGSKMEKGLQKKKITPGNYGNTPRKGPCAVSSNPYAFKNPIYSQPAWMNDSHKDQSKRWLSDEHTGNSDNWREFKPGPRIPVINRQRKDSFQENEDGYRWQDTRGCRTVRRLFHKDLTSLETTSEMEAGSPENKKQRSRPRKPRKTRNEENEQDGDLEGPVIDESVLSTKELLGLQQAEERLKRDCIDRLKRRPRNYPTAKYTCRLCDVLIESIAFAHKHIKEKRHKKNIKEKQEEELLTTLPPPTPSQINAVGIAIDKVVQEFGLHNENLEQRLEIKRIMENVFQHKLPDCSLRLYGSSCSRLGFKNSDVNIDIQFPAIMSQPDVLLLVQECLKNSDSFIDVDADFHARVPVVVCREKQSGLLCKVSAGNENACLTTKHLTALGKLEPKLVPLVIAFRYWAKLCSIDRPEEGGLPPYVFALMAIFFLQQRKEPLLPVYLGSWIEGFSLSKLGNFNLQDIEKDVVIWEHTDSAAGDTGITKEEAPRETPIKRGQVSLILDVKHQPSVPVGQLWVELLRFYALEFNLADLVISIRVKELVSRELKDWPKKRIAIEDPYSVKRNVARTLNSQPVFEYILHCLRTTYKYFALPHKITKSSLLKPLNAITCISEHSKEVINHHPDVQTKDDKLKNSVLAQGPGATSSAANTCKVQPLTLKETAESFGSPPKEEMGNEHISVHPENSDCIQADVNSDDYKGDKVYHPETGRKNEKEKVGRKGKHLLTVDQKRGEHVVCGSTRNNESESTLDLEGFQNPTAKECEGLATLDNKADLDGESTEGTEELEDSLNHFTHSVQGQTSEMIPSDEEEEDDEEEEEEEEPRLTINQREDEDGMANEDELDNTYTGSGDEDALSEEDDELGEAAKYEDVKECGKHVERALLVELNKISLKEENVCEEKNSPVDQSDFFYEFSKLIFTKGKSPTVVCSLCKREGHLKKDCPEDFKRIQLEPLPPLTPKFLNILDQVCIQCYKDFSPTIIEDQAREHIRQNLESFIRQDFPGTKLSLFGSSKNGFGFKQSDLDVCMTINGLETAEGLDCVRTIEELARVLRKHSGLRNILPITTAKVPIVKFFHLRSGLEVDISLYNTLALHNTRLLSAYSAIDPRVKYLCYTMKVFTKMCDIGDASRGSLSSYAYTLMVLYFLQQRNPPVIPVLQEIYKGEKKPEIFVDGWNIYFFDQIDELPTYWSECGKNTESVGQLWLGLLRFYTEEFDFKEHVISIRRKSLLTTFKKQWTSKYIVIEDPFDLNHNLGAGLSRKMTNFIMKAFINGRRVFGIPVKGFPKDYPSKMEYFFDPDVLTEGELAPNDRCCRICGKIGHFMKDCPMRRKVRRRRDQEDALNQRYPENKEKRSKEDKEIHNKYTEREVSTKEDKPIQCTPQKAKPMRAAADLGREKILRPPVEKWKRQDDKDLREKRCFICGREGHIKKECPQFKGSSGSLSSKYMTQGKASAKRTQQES
UniProt P62253: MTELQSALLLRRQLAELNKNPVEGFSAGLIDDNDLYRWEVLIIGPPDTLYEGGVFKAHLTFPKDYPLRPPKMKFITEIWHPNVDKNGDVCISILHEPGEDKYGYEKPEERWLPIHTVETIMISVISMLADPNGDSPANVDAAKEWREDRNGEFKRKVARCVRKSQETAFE
UniProt P61086: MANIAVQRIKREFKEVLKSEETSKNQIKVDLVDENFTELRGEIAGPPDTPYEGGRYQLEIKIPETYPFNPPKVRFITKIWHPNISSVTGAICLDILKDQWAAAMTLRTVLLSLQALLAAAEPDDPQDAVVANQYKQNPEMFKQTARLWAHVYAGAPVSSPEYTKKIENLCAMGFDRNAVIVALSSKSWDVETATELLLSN

[2] = compound: CN1CCc2c(c3ccccc3n2Cc2ccc(C(=O)NO)cc2)C1 [Tubastatin A]
In short: as §1

[3] = compound: CNC(=O)C1=CC=CC=C1NC2=NC(=NC=C2Cl)NC3=C(C=C(C=C3)N4CCOCC4)OC
In short: as §1

[4] = compound: CNC(=O)c1ccc(Nc2ncc(C(F)(F)F)c(NCc3nccnc3N(C)S(C)(=O)=O)n2)cc1 [defactinib]
In short: as §1

[5] = compound: CNc1nc(-c2ccc3c(N)n[nH]c3c2)cc(N2C[C@@H](C(=O)NC3CCCCC3)CC[C@H]2C)n1
In short: as §1

[6] = compound: COC(=O)N[C@@H](C)CNc1nccc(-c2cn(C(C)C)nc2-c2cc(Cl)cc(NS(C)(=O)=O)c2F)n1 [encorafenib]
In short: as §1

[7] = compound: COC(=O)[C@H](CCSC)NC(=O)C1=C(C=C(C=C1)NC[C@H](CS)N)C2=CC=CC=C2
In short: as §1

[8] = compound: COc1cc(Nc2ncc3c(n2)-c2ccc(Cl)cc2C(c2c(F)cccc2OC)=NC3)ccc1C(=O)O [alisertib]
In short: as §1

[9] = compound: COc1cc2nc(-c3cc(F)ccc3O)nc(N[C@@H]3CNC[C@H]3C(C)(C)O)c2cc1OC
In short: as §1

[10] = compound: COc1cc2ncnc(Nc3ccc(F)c(Cl)c3)c2cc1OCCCN1CCOCC1 [gefitinib]
In short: as §1

[11] = compound: CS(=O)(=O)CCNCc1ccc(-c2ccc3ncnc(Nc4ccc(OCc5cccc(F)c5)c(Cl)c4)c3c2)o1 [lapatinib]
In short: as §1

[12] = compound: CS(=O)(=O)N1CCN(Cc2cc3nc(-c4cccc5[nH]ncc45)nc(N4CCOCC4)c3s2)CC1 [pictilisib]
In short: as §1

[13] = compound: C[C@@H](Oc1cc(-c2cnn(C3CCNCC3)c2)cnc1N)c1c(Cl)ccc(F)c1Cl [crizotinib]
In short: as §1

[14] = compound: C[C@H](C1=CC=C(C=C1)C(=O)NC2=C3C=CNC3=NC=C2)N
In short: as §1

[15] = compound: C[C@H](Nc1ncnc2nc[nH]c12)c1cc2cccc(Cl)c2c(=O)n1-c1ccccc1 [duvelisib]
In short: as §1

[16] = compound: Cc1cc(Nc2cc(CN3CCOCC3)c3nc(C)c(Cc4ccc(Cl)cc4F)n3n2)n[nH]1 [gandotinib]
In short: as §1

[17] = compound: Cc1cc(Nc2cc(N3CCN(C)CC3)nc(Sc3ccc(NC(=O)C4CC4)cc3)n2)n[nH]1 [tozasertib]
In short: as §1

[18] = compound: Cc1ccc(-n2nc(C(C)(C)C)cc2NC(=O)Nc2ccc(OCCN3CCOCC3)c3ccccc23)cc1 [doramapimod]
In short: as §1

[19] = compound: Cc1ccc(NC(=O)c2ccc(CN3CC[C@H](N(C)C)C3)c(C(F)(F)F)c2)cc1Nc1nccc(-c2cncnc2)n1 [bafetinib]
In short: as §1

[20] = compound: Cc1cccc(CC(=O)N2CCc3c2ccc(-c2cn(C)c4ncnc(N)c24)c3F)n1
In short: as §1

Measured: log2 fold change

TWF1 (UniProt Q12792)
inactive: [1] 0.059 | [2] 0.057 | [3] 0.014 | [4] -0.054 | [5] -0.022 | [6] -0.036 | [7] -0.022 | [8] -0.014 | [9] 0.006 | [10] -0.015 | [11] -0.015 | [12] -0.049 | [13] 0.033 | [14] -0.004 | [15] 0.017 | [16] -0.02 | [17] 0.025 | [18] 0.021 | [19] -0.026 | [20] -0.025

TUBA1C (UniProt Q9BQE3)
inactive: [1] 0 | [2] -0.001 | [3] 0.011 | [4] 0.009 | [5] 0.06 | [6] -0.002 | [7] 0.023 | [8] -0.012 | [9] 0.001 | [10] -0.042 | [11] 0.004 | [12] -0.057 | [13] -0.045 | [14] -0.013 | [15] -0.019 | [16] 0.062 | [17] -0.008 | [18] -0.026 | [19] 0.005 | [20] 0.021

UBE3A (UniProt Q05086)
inactive: [1] 0.008 | [2] 0.003 | [3] 0 | [4] -0.007 | [5] 0.008 | [6] -0.002 | [7] -0.03 | [8] -0.004 | [9] 0.011 | [10] -0.026 | [11] -0.013 | [12] -0.023 | [13] -0.008 | [14] -0.077 | [15] 0.016 | [16] 0 | [17] -0.01 | [18] 0.018 | [19] -0.034 | [20] 0.027

TUBGCP2 isoform 4 (UniProt Q9BSJ2)
inactive: [1] -0.007 | [2] -0.008 | [3] 0.053 | [4] 0.032 | [5] 0.003 | [6] 0.045 | [7] -0.026 | [8] 0.021 | [9] 0.017 | [10] -0.018 | [11] -0.008 | [12] -0.029 | [13] -0.119 | [14] 0.08 | [15] -0.001 | [16] -0.087 | [17] 0.002 | [18] 0.033 | [19] 0.002 | [20] 0.009

Quoted at random: 2 entries already listed
TUBA1C (UniProt Q9BQE3)
inactive: [1] 0 | [2] -0.001 | [3] 0.011 | [4] 0.009 | [5] 0.06 | [6] -0.002 | [7] 0.023 | [8] -0.012 | [9] 0.001 | [10] -0.042 | [11] 0.004 | [12] -0.057 | [13] -0.045 | [14] -0.013 | [15] -0.019 | [16] 0.062 | [17] -0.008 | [18] -0.026 | [19] 0.005 | [20] 0.021

UBE3A (UniProt Q05086)
inactive: [1] 0.008 | [2] 0.003 | [3] 0 | [4] -0.007 | [5] 0.008 | [6] -0.002 | [7] -0.03 | [8] -0.004 | [9] 0.011 | [10] -0.026 | [11] -0.013 | [12] -0.023 | [13] -0.008 | [14] -0.077 | [15] 0.016 | [16] 0 | [17] -0.01 | [18] 0.018 | [19] -0.034 | [20] 0.027

(cont.)

UBE4A isoform 2 (UniProt Q14139)
inactive: [1] 0 | [2] -0.087 | [3] 0.029 | [4] 0.011 | [5] -0.073 | [6] 0.018 | [7] -0.102 | [8] 0.018 | [9] 0.013 | [10] -0.041 | [11] -0.019 | [12] -0.007 | [13] -0.059 | [14] -0.009 | [15] 0.016 | [16] -0.15 | [17] 0 | [18] 0.004 | [19] -0.054 | [20] 0.043

TXN2 (UniProt Q99757)
inactive: [1] -0.019 | [2] 0.079 | [3] 0.027 | [4] 0.034 | [5] 0.047 | [6] -0.063 | [7] -0.15 | [8] -0.026 | [9] -0.024 | [10] -0.037 | [11] 0.099 | [12] 0.079 | [13] 0.053 | [14] 0.008 | [15] 0 | [16] 0.023 | [17] 0.015 | [18] -0.011 | [19] 0.048 | [20] 0.098

UBA2 (UniProt Q9UBT2)
inactive: [1] 0.018 | [2] 0.009 | [3] -0.019 | [4] -0.019 | [5] 0.015 | [6] -0.013 | [7] -0.003 | [8] 0.005 | [9] -0.003 | [10] -0.023 | [11] -0.01 | [12] 0.023 | [13] 0.058 | [14] 0.004 | [15] 0.013 | [16] -0.033 | [17] -0.011 | [18] 0.001 | [19] 0.002 | [20] -0.037

TXNDC9 (UniProt O14530)
inactive: [1] -0.04 | [2] 0.033 | [3] 0.026 | [4] -0.016 | [5] 0.02 | [6] -0.011 | [7] -0.039 | [8] -0.019 | [9] -0.022 | [10] -0.004 | [11] -0.025 | [12] 0.039 | [13] 0.028 | [14] -0.164 | [15] 0.008 | [16] 0.064 | [17] -0.026 | [18] -0.044 | [19] -0.033 | [20] 0.074

UBE3C (UniProt Q15386)
inactive: [1] 0 | [2] -0.084 | [3] 0.023 | [4] 0.033 | [5] 0.024 | [6] 0.076 | [7] -0.145 | [8] 0.022 | [9] 0 | [10] -0.026 | [11] -0.004 | [12] -0.029 | [13] -0.055 | [14] -0.039 | [15] 0.007 | [16] -0.075 | [17] 0 | [18] 0.038 | [19] -0.036 | [20] 0.021

UBE2O (UniProt Q9C0C9)
inactive: [1] -0.048 | [2] 0.016 | [3] 0.019 | [4] -0.006 | [5] 0.131 | [6] -0.009 | [7] 0.012 | [8] -0.03 | [9] 0.006 | [10] -0.003 | [11] -0.011 | [12] -0.009 | [13] -0.022 | [14] -0.079 | [15] 0.021 | [16] 0.127 | [17] -0.008 | [18] 0.007 | [19] -0.005 | [20] 0.122

UBE2H (UniProt P62256)
inactive: [1] 0.11 | [2] 0.076 | [3] -0.03 | [4] 0.025 | [5] -0.061 | [6] 0.001 | [7] -0.01 | [8] 0.004 | [9] -0.029 | [10] 0.044 | [11] 0.002 | [12] -0.022 | [13] 0.011 | [14] 0.174 | [15] 0.016 | [16] -0.172 | [17] 0.024 | [18] 0.003 | [19] 0.009 | [20] -0.188

TUT7 (UniProt Q5VYS8)
inactive: [1] 0.063 | [2] 0.03 | [3] 0.032 | [4] 0.111 | [5] 0.016 | [6] -0.032 | [7] 0.06 | [8] -0.025 | [9] 0.108 | [10] 0.019 | [11] -0.002 | [12] -0.003 | [13] 0.045 | [14] 0.135 | [15] -0.034 | [16] -0.158 | [17] -0.035 | [18] -0.082 | [19] -0.128 | [20] -0.03

U2AF1 isoform 2 (UniProt Q01081)
inactive: [1] -0.055 | [2] -0.083 | [3] -0.007 | [4] -0.038 | [5] 0.003 | [6] 0.021 | [7] -0.028 | [8] 0.025 | [9] -0.011 | [10] -0.076 | [11] 0.019 | [12] 0.003 | [13] -0.063 | [14] -0.096 | [15] 0.043 | [16] -0.034 | [17] -0.013 | [18] 0.099 | [19] 0.006 | [20] 0.136

UBE2G1 (UniProt P62253)
inactive: [1] 0.036 | [2] 0.008 | [3] -0.028 | [4] -0.04 | [5] 0.005 | [6] -0.015 | [7] -0.03 | [8] -0.025 | [9] -0.004 | [10] -0.047 | [11] -0.019 | [12] -0.016 | [13] 0.057 | [14] 0.009 | [15] 0.008 | [16] 0.038 | [17] -0.052 | [18] -0.012 | [19] -0.021 | [20] -0.012

UBE2K (UniProt P61086)
inactive: [1] -0.03 | [2] 0.041 | [3] 0.013 | [4] -0.008 | [5] 0.037 | [6] -0.024 | [7] -0.029 | [8] -0.012 | [9] 0.004 | [10] -0.048 | [11] 0.019 | [12] -0.015 | [13] -0.013 | [14] -0.008 | [15] -0.006 | [16] 0.005 | [17] -0.006 | [18] -0.01 | [19] 0.039 | [20] -0.016

Source: the supplement of paper PMC10849652
